# Earlier results in US20220026427A1, “CELL BASED ASSAYS AND KITS FOR ASSESSING SERUM CHOLINERGIC RECEPTOR ACTIVITY” (Centre for Addiction and Mental Health, priority 2017, published 2022).
# Counter-ions that a name gives are not always drawn.
# Conditions: in vivo, iv; cited from earlier work
smiles,measurement,value
"CN1[C@@H]2C[C@@H](OC(=O)[C@H](CO)c3ccccc3)C[C@H]1[C@@H]1O[C@@H]12 [scopolamine, Scopolamine Hydrobromide]",time at which plasma levels peak,30 min
